Results from PMC5053661.
The exact form of at least one protein or probe is not confirmed.

Molecular target: p53 (UniProt P04637)
Assay: competition with a labelled probe
Conditions: excess unlabeled oligo abolished the N1 shift; EMSA: 100 ng recombinant p53, 100 nM annealed biotin probe; binding buffer, pH and temperature not given (ref 63); commercial protein

Sequence: TGACTGTCTGCCCATCTACCTGGCCCTACAT (double strand) [unlabeled hBD3 -1339 competitor]
- binding result: binds
